For 27 compounds, survivor count and T/C results are on record in PubChem BioAssay AID192 (DTP/NCI, 2004).

The subject of the experiment is BDF1 mice, B16 melanoma ip, median survival T/C. In words: NCI In Vivo Anticancer Drug Screen. Data for tumor model B16 Melanoma (intraperitoneal) in B6D2F1 (BDF1) mice. The following applies: T/C endpoint: median survival time, higher T/C = longer survival. The method, boiled down:
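Values are ratios of treated (T) to vehicle-control (C) measurements of survival or tumor size in tumor-bearing mice.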

Where [1] appears, read: dose: 200.0 mg/kg/injection, schedule: Q01DX009 (ip), vehicle: Klucel (hydroxypropylcellulose) (HPC).
Where [2] appears, read: dose: 12.0 mg/kg/injection, schedule: Q01DX009 (ip), vehicle: saline with Tween-80.
[3] abbreviates: dose: 25.0 mg/kg/injection, schedule: Q01DX009 (ip), vehicle: saline with Tween-80.
The mark [4] stands for this setting: dose: 50.0 mg/kg/injection, schedule: Q01DX009 (ip), vehicle: saline with Tween-80.
[5] abbreviates: dose: 100.0 mg/kg/injection, schedule: Q01DX009 (ip), vehicle: saline with Tween-80.
Setting [6] is: dose: 400.0 mg/kg/injection, schedule: Q01DX009 (ip), vehicle: saline with Tween-80.
The mark [7] stands for this setting: dose: 50.0 mg/kg/injection, schedule: Q01DX009 (ip), vehicle: saline.
The mark [8] stands for this setting: dose: 100.0 mg/kg/injection, schedule: Q01DX009 (ip), vehicle: saline.
[9] abbreviates: dose: 200.0 mg/kg/injection, schedule: Q01DX009 (ip), vehicle: saline.
[10] abbreviates: dose: 400.0 mg/kg/injection, schedule: Q01DX009 (ip), vehicle: saline.
Where [11] appears, read: dose: 200.0 mg/kg/injection, schedule: Q01DX009 (ip), vehicle: saline with Tween-80.
The mark [12] stands for this setting: dose: 25.0 mg/kg/injection, schedule: Q01DX009 (ip), vehicle: Klucel (hydroxypropylcellulose) (HPC).
Setting [13] is: dose: 50.0 mg/kg/injection, schedule: Q01DX009 (ip), vehicle: Klucel (hydroxypropylcellulose) (HPC).
Where [14] appears, read: dose: 100.0 mg/kg/injection, schedule: Q01DX009 (ip), vehicle: Klucel (hydroxypropylcellulose) (HPC).
Setting [15] is: dose: 12.5 mg/kg/injection, schedule: Q01DX009 (ip), vehicle: saline with Tween-80.
Where [16] appears, read: dose: 400.0 mg/kg/injection, schedule: Q01DX009 (ip), vehicle: Klucel (hydroxypropylcellulose) (HPC).

The structures appear in SMILES notation. The list does not hold the whole screen: it gathers tests that were run many times, whatever their T/C, doses with no T/C, and many T/C values between a quarter and a half above the control. Other doses and runs of a compound stand elsewhere. T/C is the treated group as % of the vehicle group. Some entries give survivors of the animals treated and no T/C: the source files T/C as zero there, which appears to mark a toxic dose or a test without result, not a measured value. Some survivor counts are full or nearly so, which does not show that the dose was tolerated: the source hardly ever lists a survival T/C far under the control, and the zero likely stands for such cases as well. Counts of survivors are from the toxicity check (mostly the fifth day) where no day follows; animals may have died later. Schedule codes are those of the source, read here as Q, the interval in days (D) or hours (H), X, the number of doses. Some doses were run more than once; the values are given in rising order. Where survival is the endpoint, this PubChem deposit counts one and a half times the control or more as active, and values a quarter to a half above the control carry no call in these data; other NCI protocols may use other cut-offs. Some T/C values are followed by the survivors on the day toxicity was checked, most often the fifth; without a count, all were alive then.

Consider `N#CCCCc1ccccc1`, for which, under setting [1], the survivor count is recorded as 9 of 10.

Regarding `Nc1ccccc1.[C-]#[O+].[C-]#[O+].[C-]#[O+].[C-]#[O+].[C-]#[O+].[Cr]`, the survivor count (dose: 20.0 mg/kg/injection, schedule: Q01DX009 (ip), vehicle: saline) is recorded as 1 of 10.

For `CC(=N\O)/C(C)=N/O.CC(=N\O)/C(C)=N/O.[Ni]`, the survivor count is on record as 10 of 10 under setting [2], 10 of 10 under setting [3], 8 of 10 under setting [4] and 3 of 10 under setting [5].

In the case of `CC(=O)[O][Pb]([CH2]CC(C)C)([CH2]CC(C)C)[CH2]CC(C)C`, the survivor count (dose: 3.0 mg/kg/injection, schedule: Q01DX009 (ip), vehicle: Klucel (hydroxypropylcellulose) (HPC)) is 0 of 10.

Regarding `NC(Cc1ccc(O)cc1)C(=O)N/N=C/c1ccc(N(CCCl)CCCl)cc1` (configuration not stated), the T/C (dose: 60.0 mg/kg/injection, schedule: Q01DX009 (ip), vehicle: Klucel (hydroxypropylcellulose) (HPC)) was 140 % of control.

For the compound `N#CCCSC(=S)C1CCCC1=N` (configuration not stated), the survivor count under setting [6] is listed as 6 of 10.

As for `CNNC(=O)NC`, the survivor count (dose: 6.25 mg/kg/injection, schedule: Q01DX009 (ip), vehicle: saline) was 10 of 10; the survivor count (dose: 25.0 mg/kg/injection, schedule: Q01DX009 (ip), vehicle: saline) is reported as 10 of 10; the survivor count under setting [7] was 8 of 10; the survivor count under setting [8] is 1 of 10; the survivor count under setting [9] is reported as 0 of 10; the survivor count under setting [10] was 0 of 10.

Take `CN=S(=O)(OCCCCCOS(=O)(=NC)c1ccccc1)c1ccccc1` (configuration not stated): the T/C by setting is: under setting [2], 134 % of control; under setting [4], 129 % of control. The survivor count is 10 of 10 (dose: 48.0 mg/kg/injection, schedule: Q01DX009 (ip), vehicle: saline with Tween-80); 6 of 10 under setting [5]; 3 of 10 under setting [11]; 0 of 10 under setting [6].

Consider `C=C(C)C12OC3(c4ccccc4)OC1C1C4OC4(CO)C(O)C4(O)C(=O)C(C)=CC4C1(O3)C(C)C2OC(=O)c1ccccc1` (configuration not stated), for which the T/C (dose: 0.8 mg/kg/injection, schedule: Q01DX009 (ip), vehicle: saline with Tween-80) is 126 % of control.

In the case of `FC(F)(F)c1ccc2c(c1)N(CCCN1CCN(CCOc3ccccc3)CC1)c1ccccc1S2`, the T/C (dose: 0.5 mg/kg/injection, schedule: Q01DX009 (ip), vehicle: saline) is 125 % of control [9 of 10 alive] and the T/C (dose: 1.0 mg/kg/injection, schedule: Q01DX009 (ip), vehicle: saline) is 134 % of control [9 of 10 alive]. Moreover, the survivor count (dose: 4.0 mg/kg/injection, schedule: Q01DX009 (ip), vehicle: saline) is given as 10 of 10.

On to `O=C1NC(=O)c2cccc3cccc1c23`, for which the survivor count is listed as 6 of 6 (dose: 200.0 mg/kg/injection, schedule: Q04DX003 (ip), vehicle: saline with Tween-80) and 6 of 6 (dose: 400.0 mg/kg/injection, schedule: Q04DX003 (ip), vehicle: saline with Tween-80).

On to `COc1cc(-c2ccc(Nc3ccccc3C(=O)O)c(OC)c2)ccc1Nc1ccccc1C(=O)O`, for which the T/C by setting is: under setting [8], 126 % of control; under setting [9], 126 % of control. Also, under setting [10], the survivor count is on record as 9 of 10.

For `O=C(O)c1ccc(O)c([N+](=O)[O-])c1`, under setting [10], the survivor count is listed as 8 of 10.

On to `N#Cc1ccccc1N=NNc1ccccc1C#N`, for which the survivor count (dose: 6.25 mg/kg/injection, schedule: Q01DX009 (ip), vehicle: Klucel (hydroxypropylcellulose) (HPC)) was 10 of 10; the survivor count under setting [12] is reported as 3 of 10; the survivor count under setting [13] is 3 of 10; the survivor count under setting [14] is recorded as 0 of 10; the survivor count under setting [1] is recorded as 0 of 10.

For `CCCC(Cc1ccccc1)N1CCCC1` (configuration not stated), the survivor count reads like this: under setting [7], 1 of 10; under setting [8], 0 of 10; under setting [9], 0 of 10; under setting [10], 0 of 10.

`c1ccc(-c2nn(-c3ccccc3)[n+](-c3cccc4ccccc34)n2)cc1`: where the note is “dose: 8.0 mg/kg/injection, schedule: Q01DX009 (ip), vehicle: saline with Tween-80”, the survivor count is recorded as 6 of 10.

Regarding `Cc1ccc[c]([Hg][Cl])c1N=Nc1ccccc1`, the survivor count runs as follows: under setting [15], 6 of 10; under setting [3], 0 of 10.

Take `N#CCC(=O)O`: the survivor count (dose: 75.0 mg/kg/injection, schedule: Q01DX009 (ip), vehicle: saline) is 10 of 10.

For the compound `ClCC[N+]12CC[N+](CCCl)(CC1)C2`, the T/C under setting [3] is 136 % of control [9 of 10 alive], the T/C under setting [5] is 146 % of control and the T/C under setting [8] is 139 % of control. The survivor count was 9 of 10 and 10 of 10 under setting [11]; 10 of 10 under setting [9]; 4 of 10 under setting [6].

For the compound `O=C(Nc1ccc(F)cc1)C(c1ccccc1)c1ccccc1`, the survivor count reads like this: under setting [14], 10 of 10; under setting [1], 10 of 10; under setting [16], 10 of 10.

In the case of `Cc1cc(O)c2c(c1O)C(=O)C13C(=C2O)C(=O)C2C(O)C1C1C(O)C3C(=O)C3=C(O)c4c(O)cc(C)c(O)c4C(=O)C321` (configuration not stated), the T/C (dose: 1.56 mg/kg/injection, schedule: Q01DX009 (ip), vehicle: saline with Tween-80) is 142 % of control. The survivor count by setting is: (dose: 3.12 mg/kg/injection, schedule: Q01DX009 (ip), vehicle: saline with Tween-80) 9 of 10; (dose: 6.25 mg/kg/injection, schedule: Q01DX009 (ip), vehicle: saline with Tween-80) 6 of 10; under setting [15], 0 of 10; under setting [3], 0 of 10; under setting [4], 0 of 10.

For the compound `CNC=O`, the survivor count is, setting by setting: under setting [10], 10 of 10; (dose: 800.0 mg/kg/injection, schedule: Q01DX009 (ip), vehicle: saline) 9 of 10; (dose: 1600.0 mg/kg/injection, schedule: Q01DX009 (ip), vehicle: saline) 8 of 10; (dose: 3200.0 mg/kg/injection, schedule: Q01DX009 (ip), vehicle: saline) 2 of 10.

As to `Oc1ccc(/C=N/NC(=S)NN2CCOCC2)nc1`, the survivor count under setting [13] was 10 of 10.

Take `CCCCCCCCCCCCO`: the survivor count by setting is: under setting [5], 10 of 10; under setting [11], 7 of 10; under setting [6], 4 of 10.

On to `O=C1NC(c2cccc(OCc3ccccc3)c2)Nc2ccccc21` (configuration not stated), for which, under setting [16], the survivor count was 10 of 10.

`Cc1cc(N(CCOS(C)(=O)=O)CCOS(C)(=O)=O)ccc1C=Nc1ccc(-c2nc(Cc3ccccc3)sc2C)cc1`: the T/C reads like this: (dose: 12.5 mg/kg/injection, schedule: Q01DX009 (ip), vehicle: Klucel (hydroxypropylcellulose) (HPC)) 128 and 138 % of control; under setting [12], 139 % of control. In addition, the survivor count under setting [13] is listed as 8 of 10; the survivor count under setting [14] is 1 of 10; the survivor count under setting [1] was 1 of 10 and 10 of 10; the survivor count under setting [16] is 1 of 10 and 10 of 10.

As to `OCCN1CCN(CC/C=C2\c3ccccc3COc3ccc(Cl)cc32)CC1`, the survivor count is 4 of 10 (dose: 8.0 mg/kg/injection, schedule: Q01DX009 (ip), vehicle: saline); 9 of 10 (dose: 16.0 mg/kg/injection, schedule: Q01DX009 (ip), vehicle: saline); 0 of 10 (dose: 32.0 mg/kg/injection, schedule: Q01DX009 (ip), vehicle: saline).
